Laboratory results published in publication PMC9654355.

Target: ZmSRG7 (stress-related gene, mapping chromosome 7; Zm00001d019704) (maize (Zea mays L.))
Test: two-hybrid; GAL4 system, bait in pGBKT7 (BD), prey in pGADT7 (AD); transformation checked on SD/-Trp/-Leu; interaction read as growth and blue colour on SD/-Leu/-Trp/-His/-Ade with X-alpha-Gal

B1: Zmdhn1 protein (protein, UniProt P12950 1-168)
chain: MEYGQQGQRGHGRTGHVDQYGNPVGGVEHGTGGMRHGTGTTGGMGQLGEHGGAGMGGGQFQPAREEHKTGGILHRSGSSSSSSSEDDGMGGRRKKGIKEKIKEKLPGGHKDDQHATATTGGAYGQQGHTGSAYGQQGHTGGAYATGTEGTGEKKGIMDKIKEKLPGQH
  binding: binds

No constants are given. Whether binding was seen depends on the method and setting. Binding calls can cover weak binding; strength is not graded here.
